In article doi:10.1101/2024.01.05.574302 (bioRxiv, 2024):

Biological target: T1, gAnkB (aa. 1476-1727) fragment of the neurospecific domain, Trx-His6-3×StrepII fusion (human) (UniProt Q01484)
T1 sequence: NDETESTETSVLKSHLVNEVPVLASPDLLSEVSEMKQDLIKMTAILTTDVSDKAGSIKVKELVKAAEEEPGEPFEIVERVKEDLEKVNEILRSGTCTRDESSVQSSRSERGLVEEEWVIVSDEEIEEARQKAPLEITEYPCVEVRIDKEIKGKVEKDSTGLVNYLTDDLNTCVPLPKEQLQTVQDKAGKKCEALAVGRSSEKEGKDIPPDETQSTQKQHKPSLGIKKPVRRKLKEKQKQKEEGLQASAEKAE
Assay: affinity purification with mass spectrometry

With “ATP1A2 (endogenous, mouse brain) (from UniProt Q6PIE5 1-1020)” as the substance, how does the binding read?
The binding was “no binding”.

No constants are given. Whether binding was seen depends on the method and setting. In cells and extracts the contact can be indirect. A yes stands for co-enrichment or nearness to the bait. Other partners may have been found. A no says only that the protein was not detected with the bait. Sequences can lack the tags named with a protein.
